Test results from PMC7819943, “Rice protein-binding microarrays: a tool to detect cis-acting elements near promoter regions in rice”.
The list shows a part of the results.

Sequences of proteins named here, by UniProt entry; tags and fusion partners are left off.
UniProt Q0JBA9, entry or part of it: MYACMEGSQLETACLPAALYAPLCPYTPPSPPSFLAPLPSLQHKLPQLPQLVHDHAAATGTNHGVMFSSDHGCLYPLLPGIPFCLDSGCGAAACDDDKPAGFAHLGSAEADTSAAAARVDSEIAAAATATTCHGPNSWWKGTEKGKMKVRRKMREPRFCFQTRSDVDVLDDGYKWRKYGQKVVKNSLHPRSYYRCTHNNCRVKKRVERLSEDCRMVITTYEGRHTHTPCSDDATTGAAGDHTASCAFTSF

The sequences below were run against OsWRKY34 (Oryza sativa, UniProt Q0JBA9 1-250) (assay: protein-binding microarray (RPBM); PBS, 2% BSA, 51.3 ng/ul salmon testes DNA, 50 uM zinc acetate, 200 nM TF, 25 C, 1 h; high values mean tight binding). Settings: protein: recombinant; tags: N-terminal polyhistidine and DsRed monomer fusion (pET32a); label: CyDye5-dUTP incorporated in the synthesized complementary strand; 3' TTTTT single-stranded linker to array surface; dsDNA, one strand shown.
Outline: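 A custom Agilent array was converted to double-stranded form by primer extension with Cy5-dUTP and blocked with 2% BSA. Protein at 200 nM in PBS with 2% BSA, salmon testes DNA and 50 µM zinc acetate was applied for 1 h at 25 °C, followed by washing. The proteins were polyhistidine–DsRed N-terminal fusions of transcription factors, expressed in E. coli BL21-CodonPlus and Ni–NTA-purified. The binding signal is per-feature fluorescence intensity (arbitrary units) from an Axon 4000B scanner.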

Sequence | binding signal
TTGCCAATGAGCTGCATGCCCTCACAGTCACATGTGAGACCGGAGTCACCTAGTGCAG | 8090 fluorescence intensity (a.u.)
AACTCTTGACAGCACCGACCATACGTGTACACAACCCATCCGGAGTCACCTAGTGCAG | 8640 fluorescence intensity (a.u.)
TCTTCATTCATTTTCATTTTCCAATCCCACATCTCATAACCGGAGTCACCTAGTGCAG | 9860 fluorescence intensity (a.u.)
GTACTCAGTCTTGCTCTATTTTCCCCAAACCCCAGAGTTTCGGAGTCACCTAGTGCAG | 8500 fluorescence intensity (a.u.)
GTGTGTGTAGGAAAGTTTTGATGTGATGGAAAAGTTGGAACGGAGTCACCTAGTGCAG | 8720 fluorescence intensity (a.u.)
CTTTGCTTGGTTGCTTGTGTTGTGTGCTGTGCTGTGCAGTCGGAGTCACCTAGTGCAG | 8220 fluorescence intensity (a.u.)
GCGATGTGTGGAGATTGGATGGTTGGCTTCTTCTCGGTTTCGGAGTCACCTAGTGCAG | 10700 fluorescence intensity (a.u.)
ACATGGTCACGTACTCACATCACATACATACATACAGACACGGAGTCACCTAGTGCAG | 8030 fluorescence intensity (a.u.)
ATTTTTACCTGTTACCTGTAGTTGCCGTACTCGCGAACAGCGGAGTCACCTAGTGCAG | 8060 fluorescence intensity (a.u.)
TGTGGCTCATCAGTACTACTGCATCATGATTCCGATAATTCGGAGTCACCTAGTGCAG | 8250 fluorescence intensity (a.u.)
TGTGATTGCACATATATTTTCCTATTCCACATATTCCACACGGAGTCACCTAGTGCAG | 9130 fluorescence intensity (a.u.)
GATCCTGGGTTCTACTTCTACGGGTCAAAAACAATTGTCCCGGAGTCACCTAGTGCAG | 9250 fluorescence intensity (a.u.)
CGCCTATACCCCACCCGTCGTCAGTCGTCACTGCGCTCCACGGAGTCACCTAGTGCAG | 9570 fluorescence intensity (a.u.)
TCGCTCTCGGAGACCGAGTCCGAGCGAGCTGATCTGTTTTCGGAGTCACCTAGTGCAG | 8660 fluorescence intensity (a.u.)
GACACCGTTGACTTTTTAGCACATGTTTGACCGCTCATCTCGGAGTCACCTAGTGCAG | 32800 fluorescence intensity (a.u.)
CCTATATAAACCGCGCGTTTGCCTCACCTTTCACTTCATCCGGAGTCACCTAGTGCAG | 9790 fluorescence intensity (a.u.)
GCTCACAACGCGCGTACCCTTGTCTCTATGAACGTCCTTGCGGAGTCACCTAGTGCAG | 9370 fluorescence intensity (a.u.)
TTTTATTGACTAATTTATGGGGTTTGTTTTGCCACTTTTGCGGAGTCACCTAGTGCAG | 8440 fluorescence intensity (a.u.)
TGGGGTAGGGGTGGGATGAGAAAGAAGGAGAGATCGCCGGCGGAGTCACCTAGTGCAG | 8590 fluorescence intensity (a.u.)
AGCAAACCATGTTCAGTTAATCAATTTTTGCCATCAAGTTCGGAGTCACCTAGTGCAG | 8620 fluorescence intensity (a.u.)
CTTCGCCGGCGTCTCCGCCTCCGCATCTACGCCTGATTGACGGAGTCACCTAGTGCAG | 10500 fluorescence intensity (a.u.)
ATCCATCCATTGGCCAAGTGGCTGCCGTGCTGCACCTATACGGAGTCACCTAGTGCAG | 8130 fluorescence intensity (a.u.)
ACGCCGACACCGCCGCGCCGCTCCGCCGCCCCTATCACGCCGGAGTCACCTAGTGCAG | 8150 fluorescence intensity (a.u.)
GTCCGCATCGAGCCGCAGATCTTTCTCACCGCCACCGATGCGGAGTCACCTAGTGCAG | 8140 fluorescence intensity (a.u.)
TACCATTTATTCTATTGTGACTTGATTCATCAACAAATGTCGGAGTCACCTAGTGCAG | 8490 fluorescence intensity (a.u.)
TTGGTTGTGACATTATTCCATACTTCTTCTAAATGCTATACGGAGTCACCTAGTGCAG | 8260 fluorescence intensity (a.u.)
TCTGCGGTCTAATCAAATGACTATTCTTGTGTTTTTTTCTCGGAGTCACCTAGTGCAG | 8230 fluorescence intensity (a.u.)

Sequence | binding signal
CTGCTAAGCTTATTTATAGGCCTCCACTCACTCATCTCTCCGGAGTCACCTAGTGCAG | 8910 fluorescence intensity (a.u.)
ATGGTTCGATTATTGGTGGAGTTCTCTCTCGGTTTCTCCGCGGAGTCACCTAGTGCAG | 10600 fluorescence intensity (a.u.)
ATTCCATTCTGTATTCCTGCAACCGTGTGTGCTTTTTTCCCGGAGTCACCTAGTGCAG | 10700 fluorescence intensity (a.u.)
CGACAGTTTCCTTTTTCGCGACCACTTCCGATCTCCTAAACGGAGTCACCTAGTGCAG | 17000 fluorescence intensity (a.u.)
TGCACCATCTCATGCCACTACCATCAGTTGACCATGTGTTCGGAGTCACCTAGTGCAG | 11100 fluorescence intensity (a.u.)
ATAATCTGTTAATTTCAGTAAGTCTCACCTTATATGCTTCCGGAGTCACCTAGTGCAG | 8520 fluorescence intensity (a.u.)
TGTTTTTTTTACTCGGCCTCTATACCCAACCGGATACTCACGGAGTCACCTAGTGCAG | 8980 fluorescence intensity (a.u.)
CTCCAAATGGTCGCGCATACGCCGCTTTTTTCTATAGCTCCGGAGTCACCTAGTGCAG | 12800 fluorescence intensity (a.u.)
CCGTTTTCATTTTTGGGTTGGGAACATGTTCATGCGAACACGGAGTCACCTAGTGCAG | 9780 fluorescence intensity (a.u.)
TGCGCGCCGCTGCCGCCCCGCCCGTTCCATTCCATGATTCCGGAGTCACCTAGTGCAG | 10900 fluorescence intensity (a.u.)
TCCTACGGTCTGCACACCAAGCTTCGACGTGTCCGTGCCACGGAGTCACCTAGTGCAG | 9020 fluorescence intensity (a.u.)
TGTATTTCTATGGACTCTATACTCTACTTCTAATATTCCTCGGAGTCACCTAGTGCAG | 11300 fluorescence intensity (a.u.)
GGTATGGAAGGTGGGAGGGTAAAATGGTAATTGTTTTTTACGGAGTCACCTAGTGCAG | 14800 fluorescence intensity (a.u.)
CTATTTGGCACTCCATGCCCTGCACCACTCACCCTGCCACCGGAGTCACCTAGTGCAG | 10100 fluorescence intensity (a.u.)
ACATTCGGTAGTGCTACTCACGGTTCATCCCCAGTGTTTTCGGAGTCACCTAGTGCAG | 10000 fluorescence intensity (a.u.)
AGCCTTGCGTGTCACCTGCTCGATCAATTTCCTGGCCCAACGGAGTCACCTAGTGCAG | 8220 fluorescence intensity (a.u.)
AATTGTTTGGTTGGTAGAATGACGCCTCAATCCGCACCATCGGAGTCACCTAGTGCAG | 8040 fluorescence intensity (a.u.)
ACAACCTTATGCCTACATGGCGCATTTTGTTTGTTTGGGTCGGAGTCACCTAGTGCAG | 8320 fluorescence intensity (a.u.)
TTTGTTCTAATCATCCTTCGATTGGGTTGGGTTGAGCAATCGGAGTCACCTAGTGCAG | 9490 fluorescence intensity (a.u.)
TTATCACTTTATATGTCTTCTACTGGTGAAATATTACATTCGGAGTCACCTAGTGCAG | 9050 fluorescence intensity (a.u.)
GACCCATCGTCGCCTCGCCTAATCATCATCCTTTCCGATGCGGAGTCACCTAGTGCAG | 10800 fluorescence intensity (a.u.)
GTCCTGCCGCTTCAGCTGCTGCTGCTGCTTCTTCTACGCGCGGAGTCACCTAGTGCAG | 8280 fluorescence intensity (a.u.)
GCTCTTATCCCGAGCTCGTGTCACTGGTGGGGTGGGGCCCCGGAGTCACCTAGTGCAG | 16600 fluorescence intensity (a.u.)
GTTTTTTTCTAAGCATTGACTTTTAAATCGCTAACTATATCGGAGTCACCTAGTGCAG | 9670 fluorescence intensity (a.u.)
TTCTCTTCTTACCGTTGGCCACACCATGATAATACGCTGTCGGAGTCACCTAGTGCAG | 10300 fluorescence intensity (a.u.)
GGGCCTTAGTATTATTTTCTTCCAATTTTTTTAACTTCTACGGAGTCACCTAGTGCAG | 8740 fluorescence intensity (a.u.)
GCCCATTGTCTCTGTCCACTTGGCTCGGCCCACTTATAAGCGGAGTCACCTAGTGCAG | 9170 fluorescence intensity (a.u.)

Five entries from above, comma-delimited.
Sequence,binding signal
CGCCTATACCCCACCCGTCGTCAGTCGTCACTGCGCTCCACGGAGTCACCTAGTGCAG,9570 fluorescence intensity (a.u.)
TCGCTCTCGGAGACCGAGTCCGAGCGAGCTGATCTGTTTTCGGAGTCACCTAGTGCAG,8660 fluorescence intensity (a.u.)
GACACCGTTGACTTTTTAGCACATGTTTGACCGCTCATCTCGGAGTCACCTAGTGCAG,32800 fluorescence intensity (a.u.)
CCTATATAAACCGCGCGTTTGCCTCACCTTTCACTTCATCCGGAGTCACCTAGTGCAG,9790 fluorescence intensity (a.u.)
GCTCACAACGCGCGTACCCTTGTCTCTATGAACGTCCTTGCGGAGTCACCTAGTGCAG,9370 fluorescence intensity (a.u.)
